In PubChem BioAssay AID2685 (National Center for Advancing Translational Sciences (NCATS), 2010):
The campaign covered roughly 320,000 compounds. About 2,100 (0.66%) were called active. Inconclusive means that the source gave no clear call. Such entries were picked first, then a sample of the others. Calls come from the whole dose curve; as a rule, active = well fitted inhibition curve with a large enough effect in the signal ratio, with a control signal flat (not every such curve was filed as active); inconclusive = small, poorly fitted or top-dose-only effect, or effect the other way, or a change in a side signal; inactive = flat fitted curve, though single readings scatter; the % refers to the signal ratio. Where the call is inconclusive, the potency comes from a doubtful curve fit.

assay: qHTS Assay for Lipid Storage Modulators in Drosophila S3 Cells; settings: BODIPY lipid droplet fluorescence, 18-24 h, cells fed with added oleic acid; lipid storage change, negative = inhibition: at 46.1 µM (top of the series) unless noted
Procedure, shortened: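 Drosophila S3 cells got compounds at several concentrations plus oleic acid (400 uM solution). Laser-scanning cytometry with 488 nm excitation read lipid droplets at 500-530 nm and cells at 575-640 nm. Percent activity was relative to 20 uM Triacsin C.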
% is set by controls: 0 for no effect and ±100 for the full control effect; potency is the fitted concentration of half-maximal effect.

Structure (SMILES)	Potency	lipid storage change, negative = inhibition
COC(=O)CCn1c(C)cc(C(=O)COc2ccccc2C(N)=O)c1C	inconclusive: 0.461 µM [activator, full curve, poor fit]	–
CC(=O)Nc1nonc1NC(C)=O	inconclusive: 29.1 µM [falling, single point]	–
CCc1c(O)nc(SCC(=O)Nc2nc3ccccc3s2)n(C2CCCCC2)c1=O	–	inconclusive: -16.4%
c1ccc(-c2nn3c(Cn4nnc5ccccc54)nnc3s2)nc1	inconclusive: 0.731 µM [rising, single point]	–
COc1ccc(C(=O)Nc2ccnc(-c3cccnc3)n2)cc1	–	inconclusive: 16.1% [at 9.22 µM]
O=C(N/N=C/c1cccc(Br)c1)C1CC(=O)N(c2ccccc2)C1 (centres undefined)	inconclusive: 3.26 µM [falling, partial curve]	–
CCCCOc1ccc(C(=O)Nc2ccc(S(=O)(=O)Nc3onc(C)c3C)cc2)cc1	inconclusive: 1.46 µM [activator, partial curve]	–
CCS(=O)(=O)N1Cc2ccccc2CC1C(=O)Nc1ccc(C)cc1 (centres undefined)	–	inactive
Cc1nnc(SCCn2c(N3CCCC(C)C3)nc3c2c(=O)[nH]c(=O)n3C)s1 (centres undefined)	inconclusive: 0.92 µM [falling, full curve]	–
NS(=O)(=O)c1ccc(NS(=O)(=O)c2ccc(NC(=S)Nc3ccccc3)cc2)cc1	–	inconclusive: -4.3%
O=C(OCC(=O)N1CCOCC1)c1cccc(S(=O)(=O)Nc2ccc(F)cc2)c1	inconclusive: 5.8 µM [falling, partial curve, poor fit]	–
O=C1C2C(C(=O)N1c1ccncc1)C1C=CC2C12CC2 (centres undefined)	–	inconclusive: -24.1%
COc1ccc(OC)c(CNS(=O)(=O)c2c(C)nc3scc(C)n3c2=O)c1	inconclusive: 29.1 µM [activator, single point]	–
CCN(CC(=O)Nc1cc(Cl)ccc1C)C(=O)c1ccc(N2CCCC2=O)cc1	–	inconclusive: 33.3%
COc1ccc(NC(=O)/C=C/c2ccc(OC(F)F)cc2)cn1	–	inconclusive: -44.2%
COc1ccc(N2CCN(C(=O)C3CCCN(S(=O)(=O)c4ccc(F)cc4)C3)CC2)cc1 (centres undefined)	inconclusive: 20.6 µM [falling, partial curve, poor fit]	–
CCOc1ccc(N2CC(C(=O)Nc3ccc(S(=O)(=O)Nc4nccs4)cc3)CC2=O)cc1 (centres undefined)	–	inconclusive: -30.8%
O=S(=O)(c1cccc(S(=O)(=O)N2CCOCC2)c1)N1CCCCCC1	inconclusive: 16.4 µM [falling, single point]	–
COc1ccc(C(CNC(=O)c2nn(-c3ccccc3)c(=O)c3ccccc23)N2CCOCC2)cc1 (centres undefined)	–	inconclusive: 1.66%

One compound at a time (already shown).
CCN(CC(=O)Nc1cc(Cl)ccc1C)C(=O)c1ccc(N2CCCC2=O)cc1 is listed with lipid storage change, negative = inhibition: inconclusive: 33.3%
COc1ccc(N2CCN(C(=O)C3CCCN(S(=O)(=O)c4ccc(F)cc4)C3)CC2)cc1 (centres undefined) is listed with Potency: inconclusive: 20.6 µM [falling, partial curve, poor fit]
